Source: the supplement of paper PMC12823440, “Inhibitors supercharge kinase turnover through native proteolytic circuits” (Nature, 2025)
Structures can show the parent of a compound that is named as a salt. The list shows a part of the results. The calls rarely recur for the same compound in another form.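 In K562 cells expressing nanoluciferase-fused kinases, luminescence was recorded at 4 h intervals between 2 and 18 h, normalized as percent of control with DMSO at 100% and a positive control at 0%. A significant (2 sigma) signal drop marks a time point as decreased. The authors' rule for a hit is not shown and takes in more than the number of time points.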

By UniProt entry, the sequences of proteins in these tests, tags left out. Where a name states a change or a piece, a line headed by the entry shows the natural chain unless it says otherwise.
UniProt Q06187: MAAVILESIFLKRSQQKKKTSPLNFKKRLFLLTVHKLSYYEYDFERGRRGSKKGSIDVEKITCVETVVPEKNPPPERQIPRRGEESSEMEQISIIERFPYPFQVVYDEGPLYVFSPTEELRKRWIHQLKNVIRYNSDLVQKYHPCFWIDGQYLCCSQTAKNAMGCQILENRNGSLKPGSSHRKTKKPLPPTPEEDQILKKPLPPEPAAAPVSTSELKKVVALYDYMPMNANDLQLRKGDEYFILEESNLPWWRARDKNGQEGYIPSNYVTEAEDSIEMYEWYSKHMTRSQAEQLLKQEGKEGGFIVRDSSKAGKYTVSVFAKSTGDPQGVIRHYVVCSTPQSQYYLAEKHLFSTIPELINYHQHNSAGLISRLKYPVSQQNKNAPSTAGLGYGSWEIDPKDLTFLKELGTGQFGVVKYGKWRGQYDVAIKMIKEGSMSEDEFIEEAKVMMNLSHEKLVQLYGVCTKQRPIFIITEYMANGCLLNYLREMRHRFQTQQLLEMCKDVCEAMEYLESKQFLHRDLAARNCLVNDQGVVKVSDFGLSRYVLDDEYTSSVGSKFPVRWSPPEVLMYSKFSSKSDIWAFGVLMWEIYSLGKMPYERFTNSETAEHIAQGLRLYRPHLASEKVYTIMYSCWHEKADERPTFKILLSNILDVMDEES

molecular target: BTK (UniProt Q06187); experiment: number of time points (of 5) at which kinase-Nluc abundance scored as decreased, DMSO-normalised (count); higher = more persistent destabilization; details: K562; 2-18 h

Row | Structure (SMILES) | number of time points
1 | Oc1cc(O)c2c(c1)OC1(c3ccc(O)c(O)c3)Oc3cc(O)c4c(c3C2C1O)OC(c1ccc(O)c(O)c1)C(O)C4 (stereo not drawn) [Procyanidin A1] (10 µM) | 0
2 | c1ccc(-c2nc3c(c(-n4ccc5cnccc54)n2)CCC3)nc1 (10 µM) | 0
3 | Cc1cc(C)nc(NS(=O)(=O)c2ccc(NC(=S)NC(=O)COc3ccc(Br)cc3Cl)cc2)n1 (2.5 µM) | 0
4 | Cc1ccc(NC(=O)c2ccc(CN(CCN(C)C)C(=O)c3cccnc3)cc2)cc1Nc1nccc(-c2cccnc2)n1 [PDGFRα kinase inhibitor 1] (10 µM) | 0
5 | C[C@H](Nc1ncnc2[nH]cnc12)c1cc2ccc(F)cc2nc1-c1ccccn1 (10 µM) | 0
6 | CN(C)CCC=C1c2ccccc2CCc2ccccc21 [Amitriptyline (hydrochloride)] (2.5 µM) | 0
7 | O=C1/C(=C\c2ccc(Cl)cc2)C=C(c2ccccc2)N1c1ccc(O)cc1 (2.5 µM) | 0
8 | C[C@@H]1CCNC(=O)c2cc3ccc(C(=O)Nc4nc5ccccc5n4CCCN(C)C)cc3n21 (10 µM) | 0
9 | COc1c(Nc2cc(C)[nH]n2)nc(Sc2ccc(S(=O)(=O)Cc3cccc([N+](=O)[O-])c3F)cc2F)nc1N1CCCCC1 [Centrinone-B] (2.5 µM) | 0
10 | COc1ccc(/C=C/C(=O)C2(C(=O)/C=C/c3ccc(OC)c(OC)c3)CCCCC2)cc1OC (2.5 µM) | 0
11 | CN(C)c1nc2c(Br)c(Br)c(Br)c(Br)c2[nH]1 (10 µM) | 0
12 | O=C(Nc1nc(=O)n(Cc2ccc(Cl)cc2)s1)c1ccc(Cl)cc1 (10 µM) | 0
13 | Nc1n[nH]c2nc(-c3ccc(NS(=O)(=O)c4cc(Cl)ccc4F)cc3)cnc12 (10 µM) | 0

Nothing new here: an excerpt of the list.
Row | Structure (SMILES) | number of time points
8 | C[C@@H]1CCNC(=O)c2cc3ccc(C(=O)Nc4nc5ccccc5n4CCCN(C)C)cc3n21 (10 µM) | 0
9 | COc1c(Nc2cc(C)[nH]n2)nc(Sc2ccc(S(=O)(=O)Cc3cccc([N+](=O)[O-])c3F)cc2F)nc1N1CCCCC1 [Centrinone-B] (2.5 µM) | 0
10 | COc1ccc(/C=C/C(=O)C2(C(=O)/C=C/c3ccc(OC)c(OC)c3)CCCCC2)cc1OC (2.5 µM) | 0
